Common to all, as to experiment: log2 fold change, soluble protein after heating vs DMSO (PISA); higher = thermal stabilisation; K562 lysate, 10 uM; active = over 0.2 and 3.5 SD of the protein, either way, in both replicates (recomputed)
Compound in one test: O=C(CCCCCCC(=O)Nc1ccccc1)NO [vorinostat]
The gist of the method: (§1)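 A 30 min treatment with 10 μM compound was applied to crude K562 extract at 1 mg/mL protein in PBS pH 7.4 with 1 mM MgCl2. Heating for 3 min spanned 48°C-58°C, after which aliquots were pooled, adjusted to 0.5% NP-40 at 4°C and spun at 21,000xg for 90 min. TMTpro 16plex LC-MS/MS of the supernatant, with channel sums equalised, gave values recorded as log-two fold change in thermal stability against solvent controls, from duplicates.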

Protein sequences, listed by entry. Tags and fused reporters are not part of them. Lines headed by an entry give the natural chain unless they say otherwise; changes in a name come on top.
UniProt Q8WTR2: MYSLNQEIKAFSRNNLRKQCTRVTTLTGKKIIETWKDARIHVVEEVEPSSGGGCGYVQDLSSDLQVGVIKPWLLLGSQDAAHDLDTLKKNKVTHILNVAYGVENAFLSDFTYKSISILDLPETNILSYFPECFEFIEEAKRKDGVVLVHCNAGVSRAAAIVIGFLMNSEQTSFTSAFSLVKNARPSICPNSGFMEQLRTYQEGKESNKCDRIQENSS
UniProt Q96F86: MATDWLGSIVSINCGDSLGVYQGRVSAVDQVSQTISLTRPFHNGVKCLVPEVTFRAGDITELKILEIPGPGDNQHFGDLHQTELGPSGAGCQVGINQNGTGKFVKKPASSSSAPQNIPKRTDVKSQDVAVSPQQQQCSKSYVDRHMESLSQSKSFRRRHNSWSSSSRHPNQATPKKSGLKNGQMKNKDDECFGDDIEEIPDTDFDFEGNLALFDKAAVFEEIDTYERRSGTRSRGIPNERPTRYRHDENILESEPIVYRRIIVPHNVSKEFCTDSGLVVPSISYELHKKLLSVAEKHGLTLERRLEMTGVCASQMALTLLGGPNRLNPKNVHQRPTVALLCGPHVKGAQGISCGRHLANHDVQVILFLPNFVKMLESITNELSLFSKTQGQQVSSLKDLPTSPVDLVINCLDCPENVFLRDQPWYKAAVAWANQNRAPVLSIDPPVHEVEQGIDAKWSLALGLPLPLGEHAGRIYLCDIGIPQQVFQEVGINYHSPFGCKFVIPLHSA
UniProt P29692: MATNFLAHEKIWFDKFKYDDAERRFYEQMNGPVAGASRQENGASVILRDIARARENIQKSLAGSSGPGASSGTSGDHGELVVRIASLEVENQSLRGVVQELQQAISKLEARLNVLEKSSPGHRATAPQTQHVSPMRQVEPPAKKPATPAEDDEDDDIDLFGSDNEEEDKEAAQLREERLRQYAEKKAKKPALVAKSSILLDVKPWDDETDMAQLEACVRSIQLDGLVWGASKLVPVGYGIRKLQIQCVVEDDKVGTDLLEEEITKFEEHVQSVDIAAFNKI
UniProt Q96FN9: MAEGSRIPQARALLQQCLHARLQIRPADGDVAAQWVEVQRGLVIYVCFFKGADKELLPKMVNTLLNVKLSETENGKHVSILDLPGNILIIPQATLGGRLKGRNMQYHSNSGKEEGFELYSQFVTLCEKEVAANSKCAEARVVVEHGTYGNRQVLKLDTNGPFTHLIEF
UniProt Q9UII6: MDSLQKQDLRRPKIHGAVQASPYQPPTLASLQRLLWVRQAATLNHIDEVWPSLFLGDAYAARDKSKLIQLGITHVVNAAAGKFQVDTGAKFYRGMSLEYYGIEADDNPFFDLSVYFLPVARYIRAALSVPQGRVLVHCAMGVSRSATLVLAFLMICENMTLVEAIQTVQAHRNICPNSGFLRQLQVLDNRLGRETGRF
UniProt Q96KS0, whole entry, looked up: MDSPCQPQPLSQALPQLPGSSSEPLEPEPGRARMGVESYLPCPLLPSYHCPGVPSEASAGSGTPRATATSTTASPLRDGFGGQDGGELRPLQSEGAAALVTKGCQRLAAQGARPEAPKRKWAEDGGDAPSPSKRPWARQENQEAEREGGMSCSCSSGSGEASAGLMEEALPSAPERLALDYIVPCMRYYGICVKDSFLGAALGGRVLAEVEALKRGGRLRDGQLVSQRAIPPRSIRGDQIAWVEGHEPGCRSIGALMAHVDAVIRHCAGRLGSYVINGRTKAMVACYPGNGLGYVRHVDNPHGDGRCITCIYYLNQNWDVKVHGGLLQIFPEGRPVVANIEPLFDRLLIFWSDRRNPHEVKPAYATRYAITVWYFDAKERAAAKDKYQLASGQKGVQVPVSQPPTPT
UniProt O95147: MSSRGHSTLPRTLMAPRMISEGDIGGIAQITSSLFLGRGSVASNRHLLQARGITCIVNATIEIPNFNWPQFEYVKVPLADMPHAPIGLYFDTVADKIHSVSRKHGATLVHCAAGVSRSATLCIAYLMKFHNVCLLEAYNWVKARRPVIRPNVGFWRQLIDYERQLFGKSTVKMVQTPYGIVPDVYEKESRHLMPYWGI
UniProt O14576, whole entry, looked up: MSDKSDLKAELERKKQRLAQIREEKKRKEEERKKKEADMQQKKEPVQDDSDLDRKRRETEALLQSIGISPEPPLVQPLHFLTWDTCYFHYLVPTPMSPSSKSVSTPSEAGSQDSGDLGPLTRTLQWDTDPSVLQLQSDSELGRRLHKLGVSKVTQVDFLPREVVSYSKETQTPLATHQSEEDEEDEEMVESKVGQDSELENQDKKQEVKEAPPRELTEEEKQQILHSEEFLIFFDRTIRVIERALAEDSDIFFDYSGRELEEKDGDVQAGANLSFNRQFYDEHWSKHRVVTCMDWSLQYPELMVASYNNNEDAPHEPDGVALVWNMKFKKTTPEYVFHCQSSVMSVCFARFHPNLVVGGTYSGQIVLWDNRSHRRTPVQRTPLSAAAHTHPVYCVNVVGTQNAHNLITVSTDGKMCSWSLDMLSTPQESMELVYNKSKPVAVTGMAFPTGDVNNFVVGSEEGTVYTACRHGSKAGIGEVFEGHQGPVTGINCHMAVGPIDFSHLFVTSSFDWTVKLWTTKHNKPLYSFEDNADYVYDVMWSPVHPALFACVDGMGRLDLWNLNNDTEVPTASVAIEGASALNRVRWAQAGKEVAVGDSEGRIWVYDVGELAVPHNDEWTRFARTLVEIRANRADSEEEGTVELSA
UniProt O14640: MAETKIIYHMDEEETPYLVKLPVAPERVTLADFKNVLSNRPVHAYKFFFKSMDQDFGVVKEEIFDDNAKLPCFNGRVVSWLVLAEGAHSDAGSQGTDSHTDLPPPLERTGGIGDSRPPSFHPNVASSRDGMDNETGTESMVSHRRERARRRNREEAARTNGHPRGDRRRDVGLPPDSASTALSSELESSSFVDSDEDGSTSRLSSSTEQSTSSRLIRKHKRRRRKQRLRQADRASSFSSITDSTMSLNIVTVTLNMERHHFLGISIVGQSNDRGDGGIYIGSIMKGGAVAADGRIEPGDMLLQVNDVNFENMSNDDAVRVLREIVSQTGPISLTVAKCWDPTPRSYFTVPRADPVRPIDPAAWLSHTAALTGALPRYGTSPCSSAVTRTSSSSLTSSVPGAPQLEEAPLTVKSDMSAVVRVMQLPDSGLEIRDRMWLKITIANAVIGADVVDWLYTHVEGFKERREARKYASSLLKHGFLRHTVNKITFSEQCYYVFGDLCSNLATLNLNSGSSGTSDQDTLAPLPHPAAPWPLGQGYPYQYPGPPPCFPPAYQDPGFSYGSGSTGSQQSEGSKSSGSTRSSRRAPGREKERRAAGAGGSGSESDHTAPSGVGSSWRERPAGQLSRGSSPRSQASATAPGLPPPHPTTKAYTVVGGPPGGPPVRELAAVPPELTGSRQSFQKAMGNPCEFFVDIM
UniProt Q6XUX3: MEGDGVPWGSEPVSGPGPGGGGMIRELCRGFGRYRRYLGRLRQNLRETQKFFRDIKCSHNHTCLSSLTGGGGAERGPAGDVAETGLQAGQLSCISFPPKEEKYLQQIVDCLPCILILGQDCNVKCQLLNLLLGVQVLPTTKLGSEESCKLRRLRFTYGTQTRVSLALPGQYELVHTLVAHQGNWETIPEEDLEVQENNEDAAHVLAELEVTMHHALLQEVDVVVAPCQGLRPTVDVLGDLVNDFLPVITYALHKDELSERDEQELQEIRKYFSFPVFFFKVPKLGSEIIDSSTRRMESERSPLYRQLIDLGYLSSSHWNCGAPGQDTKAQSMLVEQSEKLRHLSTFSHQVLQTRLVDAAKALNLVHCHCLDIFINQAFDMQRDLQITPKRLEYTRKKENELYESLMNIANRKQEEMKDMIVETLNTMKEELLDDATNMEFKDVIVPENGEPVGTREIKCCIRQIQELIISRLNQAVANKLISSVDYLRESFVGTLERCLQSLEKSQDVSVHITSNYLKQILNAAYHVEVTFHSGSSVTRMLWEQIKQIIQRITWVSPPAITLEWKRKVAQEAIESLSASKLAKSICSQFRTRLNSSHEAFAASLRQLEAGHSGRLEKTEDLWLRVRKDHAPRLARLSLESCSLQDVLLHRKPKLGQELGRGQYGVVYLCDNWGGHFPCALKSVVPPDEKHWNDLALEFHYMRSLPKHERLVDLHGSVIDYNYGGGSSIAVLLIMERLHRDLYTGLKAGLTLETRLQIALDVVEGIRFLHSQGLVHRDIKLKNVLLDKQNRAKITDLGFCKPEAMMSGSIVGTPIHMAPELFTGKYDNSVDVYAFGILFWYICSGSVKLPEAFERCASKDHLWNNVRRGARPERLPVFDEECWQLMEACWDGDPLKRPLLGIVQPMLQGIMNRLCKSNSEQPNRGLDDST
UniProt Q8TCX1: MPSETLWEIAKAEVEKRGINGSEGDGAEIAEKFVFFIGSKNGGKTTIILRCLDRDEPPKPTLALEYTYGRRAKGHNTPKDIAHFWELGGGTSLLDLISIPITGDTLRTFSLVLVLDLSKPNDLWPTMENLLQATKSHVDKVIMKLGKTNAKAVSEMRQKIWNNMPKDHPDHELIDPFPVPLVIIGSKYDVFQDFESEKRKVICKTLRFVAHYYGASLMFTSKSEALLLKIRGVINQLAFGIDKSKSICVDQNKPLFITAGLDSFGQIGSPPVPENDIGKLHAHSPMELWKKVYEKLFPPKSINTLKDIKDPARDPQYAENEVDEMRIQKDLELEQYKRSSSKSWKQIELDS
UniProt Q86Y13: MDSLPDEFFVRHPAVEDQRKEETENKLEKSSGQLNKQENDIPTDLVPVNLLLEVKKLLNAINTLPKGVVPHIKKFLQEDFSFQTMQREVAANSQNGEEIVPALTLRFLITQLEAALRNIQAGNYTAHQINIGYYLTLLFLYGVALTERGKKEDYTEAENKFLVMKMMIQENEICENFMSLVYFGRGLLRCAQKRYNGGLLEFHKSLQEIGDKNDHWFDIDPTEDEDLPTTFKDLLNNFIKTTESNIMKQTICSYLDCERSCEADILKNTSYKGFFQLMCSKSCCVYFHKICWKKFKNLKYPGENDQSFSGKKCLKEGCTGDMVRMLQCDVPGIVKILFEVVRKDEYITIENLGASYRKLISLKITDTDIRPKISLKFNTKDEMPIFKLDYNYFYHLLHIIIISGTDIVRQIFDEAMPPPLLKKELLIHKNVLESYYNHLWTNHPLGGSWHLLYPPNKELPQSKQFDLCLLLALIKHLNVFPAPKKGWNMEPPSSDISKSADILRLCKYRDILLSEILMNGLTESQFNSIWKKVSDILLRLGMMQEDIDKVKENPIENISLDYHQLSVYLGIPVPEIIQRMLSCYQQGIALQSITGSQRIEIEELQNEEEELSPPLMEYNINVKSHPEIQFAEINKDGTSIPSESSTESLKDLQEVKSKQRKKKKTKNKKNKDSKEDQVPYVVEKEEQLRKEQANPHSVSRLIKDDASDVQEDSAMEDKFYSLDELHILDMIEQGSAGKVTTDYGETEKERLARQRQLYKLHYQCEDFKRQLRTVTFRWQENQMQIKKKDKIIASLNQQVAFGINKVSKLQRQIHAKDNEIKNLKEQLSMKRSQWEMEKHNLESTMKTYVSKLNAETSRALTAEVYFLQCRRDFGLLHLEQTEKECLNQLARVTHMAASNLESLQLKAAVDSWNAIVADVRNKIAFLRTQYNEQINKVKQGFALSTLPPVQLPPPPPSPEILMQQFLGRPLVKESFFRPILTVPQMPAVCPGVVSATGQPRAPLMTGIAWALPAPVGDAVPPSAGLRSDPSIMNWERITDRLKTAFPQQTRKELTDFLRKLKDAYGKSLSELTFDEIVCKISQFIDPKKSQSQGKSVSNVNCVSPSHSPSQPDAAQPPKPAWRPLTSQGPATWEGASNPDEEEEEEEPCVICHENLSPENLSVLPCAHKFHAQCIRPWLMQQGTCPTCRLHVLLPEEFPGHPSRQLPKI
UniProt Q7L9B9: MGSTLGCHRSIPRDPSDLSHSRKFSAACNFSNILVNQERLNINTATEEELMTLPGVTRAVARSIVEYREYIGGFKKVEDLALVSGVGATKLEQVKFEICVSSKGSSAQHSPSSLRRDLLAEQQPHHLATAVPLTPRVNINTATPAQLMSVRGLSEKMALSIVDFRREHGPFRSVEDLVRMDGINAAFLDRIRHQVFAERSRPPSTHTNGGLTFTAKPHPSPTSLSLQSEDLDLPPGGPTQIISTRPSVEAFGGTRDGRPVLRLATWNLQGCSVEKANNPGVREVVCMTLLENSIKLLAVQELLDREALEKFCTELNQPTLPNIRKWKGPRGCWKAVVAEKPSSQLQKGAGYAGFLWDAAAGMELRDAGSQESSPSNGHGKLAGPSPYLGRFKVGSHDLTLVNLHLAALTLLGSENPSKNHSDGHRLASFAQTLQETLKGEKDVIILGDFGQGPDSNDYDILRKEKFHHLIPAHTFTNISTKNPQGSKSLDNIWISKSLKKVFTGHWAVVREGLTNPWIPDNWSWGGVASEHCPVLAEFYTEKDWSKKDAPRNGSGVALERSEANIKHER
UniProt O00559: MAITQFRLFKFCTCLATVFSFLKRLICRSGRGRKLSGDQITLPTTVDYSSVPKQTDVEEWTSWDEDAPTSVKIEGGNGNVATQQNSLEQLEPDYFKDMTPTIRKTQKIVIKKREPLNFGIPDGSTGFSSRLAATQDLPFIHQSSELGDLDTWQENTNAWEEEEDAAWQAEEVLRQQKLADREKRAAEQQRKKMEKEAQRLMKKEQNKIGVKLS

Compound in another test: O=C(O)c1ccc2c(c1)nc(Nc1cccc(Cl)c1)c1ccncc12 [silmitasertib]
In outline: as §1

Compound in test [1]: O=C1NC(=O)C(c2cnc3ccccn23)=C1c1cn2c3c(cc(F)cc13)CN(C(=O)N1CCCCC1)CC2
The gist of the method:
as §1

Compound in test [2]: NCC(=O)Nc1ccc(-n2nc(C(F)(F)F)cc2-c2ccc3c(ccc4ccccc43)c2)cc1
The gist of the method:
as §1

Compound in the next test: c1cn2cc(-c3ccc4cn[nH]c4c3)nc(Nc3ccc(N4CCOCC4)cc3)c2n1 [entospletinib]
In outline: as §1

The other results are listed elsewhere or left out.

On to DTX2 (UniProt Q86UW9), for which the log2 fold change in the test with vorinostat was inactive: -0.082; with silmitasertib, inactive: 0.014; in test [1], inactive: 0.021.
Consider EFR3A (UniProt Q14156), for which the log2 fold change is inactive: -0.038 in test [2], inactive: -0.261 in the test with vorinostat, inactive: 0.084 in the test with silmitasertib and inactive: -0.143 in the test with entospletinib.
As to DRAP1 (UniProt E9PQX9), the log2 fold change in test [2] was inactive: 0.032; in the test with entospletinib, inactive: 0.026.
Regarding DUSP19 (UniProt Q8WTR2), the values for the log2 fold change (in the test with vorinostat; with silmitasertib; in test [1]) were inactive: -0.354, inactive: -0.064 and inactive: -0.093, respectively.
On to DVL3 (UniProt Q92997), for which the log2 fold change in test [2] is inactive: 0.359; with vorinostat, inactive: -0.119; in the test with silmitasertib, inactive: -0.062; in test [1], inactive: 0.075; with entospletinib it was inactive: -0.049.
On to EEF1AKMT1 (UniProt Q8WVE0), for which the log2 fold change with vorinostat was inactive: -0.098; with silmitasertib, inactive: 0; in test [1] it was inactive: 0.287; with entospletinib it was inactive: -0.037.
For DTWD2 (UniProt Q8NBA8), the log2 fold change in the test with vorinostat is inactive: -0.221; in the test with silmitasertib it was inactive: 0.107; in test [1] it was inactive: -0.023.
As for EDC3 (UniProt Q96F86), the log2 fold change in test [2] is inactive: 0.02; with vorinostat, active: -0.277; in the test with silmitasertib, inactive: 0; in test [1] it was inactive: -0.026; with entospletinib, inactive: 0.013.
Taken in the same sequence, the figures for DPM1 (UniProt O60762) were inactive: 0.05, inactive: -0.01, inactive: -0.016, inactive: -0.011 and inactive: 0.02.
For EEF1D isoform 2 (UniProt P29692), in that order: inactive: 0.039, inactive: 0.11, inactive: -0.01, inactive: -0.013 and inactive: -0.007.
Turning to DSCAML1 (UniProt Q8TD84), the log2 fold change in test [1] was inactive: 0.016.
On to DTD2 (UniProt Q96FN9), for which the log2 fold change in test [2] was inactive: 0.1; in the test with vorinostat it was inactive: 0.05; in the test with silmitasertib, inactive: 0.026; in test [1], inactive: 0.007; with entospletinib, inactive: 0.123.
Consider EBNA1BP2 (UniProt Q99848), for which the log2 fold change is inactive: -0.017 in test [2]; inactive: 0.11 in the test with vorinostat; inactive: 0.009 with silmitasertib; inactive: 0.028 in test [1]; inactive: 0.016 with entospletinib.
With DUSP13 isoform 4 (UniProt Q9UII6), the log2 fold change in the test with vorinostat is inactive: 0.147; with silmitasertib, inactive: -0.062.
As for DYNLT3 (UniProt P51808), the values for the log2 fold change (with vorinostat; in the test with silmitasertib; in test [1]) were inactive: 0.226, inactive: -0.044 and inactive: -0.008, respectively.
With EGLN2 (UniProt Q96KS0), the log2 fold change in test [2] is inactive: -0.094; in test [1], inactive: 0.03; in the test with entospletinib, inactive: -0.018.
Take EHHADH (UniProt Q08426): the log2 fold change is active: 0.706 in the test with vorinostat, inactive: -0.035 with silmitasertib, inactive: -0.048 in test [1] and inactive: -0.013 with entospletinib.
DUSP14 (UniProt O95147): the log2 fold change in test [2] is inactive: -0.043; with vorinostat it was inactive: -0.33; with silmitasertib, inactive: -0.129; in the test with entospletinib, inactive: 0.004.
DRAM2 (UniProt Q6UX65): the log2 fold change in test [1] is inactive: -0.014.
Turning to DYNC1I1 (UniProt O14576), the log2 fold change is inactive: 0.094 in test [2], inactive: 0.182 with vorinostat, inactive: 0.241 in the test with silmitasertib and inactive: 0.028 with entospletinib.
Take DVL1 (UniProt O14640): the results for the log2 fold change (in test [2]; with entospletinib) were inactive: 0.15 and inactive: 0.122, respectively.
On to DPYSL3 isoform 2 (UniProt Q14195), for which the log2 fold change in test [1] is inactive: 0.028; in the test with entospletinib, inactive: -0.17.
For DSTYK (UniProt Q6XUX3), the log2 fold change in the test with vorinostat is inactive: -0.164; in the test with silmitasertib, inactive: 0.216; in test [1], inactive: -0.006.
Regarding DST isoform 3 (UniProt Q03001), the log2 fold change in the test with vorinostat is inactive: -0.041; with silmitasertib, inactive: 0.087; in the test with entospletinib, inactive: -0.004.
For DYNC2LI1 (UniProt Q8TCX1), the log2 fold change in test [2] was inactive: 0.047; in test [1], inactive: 0.165.
DZIP3 (UniProt Q86Y13): the log2 fold change with vorinostat was inactive: -0.298; with silmitasertib, inactive: 0.077.
With ECHS1 (UniProt P30084), the log2 fold change was inactive: -0.011 in test [2]; inactive: -0.055 with vorinostat; inactive: 0.036 with silmitasertib; inactive: -0.018 in test [1]; inactive: 0.025 in the test with entospletinib.
As to DPM3 isoform 2 (UniProt Q9P2X0), the log2 fold change in the test with vorinostat was inactive: 0.029; with silmitasertib, inactive: 0.022; in test [1], inactive: 0.014.
Turning to EEPD1 (UniProt Q7L9B9), in test [1], the log2 fold change was inactive: 0.112.
In the case of EBAG9 isoform 2 (UniProt O00559), the log2 fold change in test [2] is inactive: 0.04; with vorinostat, inactive: 0.218; in the test with silmitasertib it was inactive: -0.102; in test [1], inactive: 0.096; with entospletinib, inactive: 0.
Turning to EFCAB2 isoform 2 (UniProt Q5VUJ9), the log2 fold change in the test with vorinostat was inactive: 0.156; in the test with silmitasertib it was inactive: 0.096; in test [1], inactive: -0.124; with entospletinib, inactive: 0.031.
Take EID1 (UniProt Q9Y6B2): the log2 fold change in the test with vorinostat was inactive: -0.192; with silmitasertib, inactive: 0.191; with entospletinib it was inactive: -0.143.
Turning to EEF1D isoform 3 (UniProt P29692), the results for the log2 fold change (in the test with vorinostat; with silmitasertib; in test [1]) were inactive: 0.07, inactive: -0.081 and inactive: 0.2, respectively.
Take DPP7 (UniProt Q9UHL4): the log2 fold change was inactive: -0.003 in test [2]; inactive: 0.102 with vorinostat; inactive: -0.032 in the test with silmitasertib; inactive: 0.018 in test [1]; inactive: -0.016 with entospletinib.
For the target DYNC2H1 isoform 2 (UniProt Q8NCM8), the log2 fold change in test [2] was inactive: 0.044; in the test with vorinostat, inactive: 0.037; in the test with silmitasertib it was inactive: -0.015; in the test with entospletinib, inactive: 0.028.

These data come from the supplement of paper PMC10849652.
